Data reported in patent US20250213547A1, “METHODS OF TREATING NEUROLOGICAL DISEASES” (priority 2022, published 2025).

Test system: plasma 24HC
Assay: Adult DEE patients: pharmacodynamics, plasma 24HC
Assay type: in vivo, human
Conditions: tablet
Procedure: Blood sample collection and analyses for measuring 24HC was performed as previously described in example 5.

SMILES: O=C(c1cccnc1-c1ccncc1)N1CCC(O)(Cc2ccccc2)CC1 [soticlestat]
- soticlestat steady-state AUC above which 24HC lowering plateaus: greater than 800 ng×h/mL
